Source: paper PMC10238393 (2023)
These are yes or no findings as the source states them, for the method shown. Some results given as binding are weak or reduced against the parent protein; the word gives no strength.

Biological target: T1, LPHN2 olfactomedin-like (Olf) domain (human, UniProt O95490 135-394)
T1 chain: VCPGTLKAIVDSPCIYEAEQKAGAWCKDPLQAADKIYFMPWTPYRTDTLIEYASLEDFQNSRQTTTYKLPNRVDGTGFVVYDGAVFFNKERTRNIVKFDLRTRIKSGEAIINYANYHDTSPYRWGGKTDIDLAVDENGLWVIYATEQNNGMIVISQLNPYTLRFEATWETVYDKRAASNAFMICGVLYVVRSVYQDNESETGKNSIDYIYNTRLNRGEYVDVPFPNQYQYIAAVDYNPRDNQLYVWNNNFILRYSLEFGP
Assay: ELISA; solid-phase binding assay: LPHN2 extracellular domain variants (100 nM) coated on MaxiSorp 96-well plates, 1 h room temperature, blocked with 1% BSA; 0.001-10 μM LRG1 forms added; detected with anti-LRG1 antibody and peroxidase-conjugated secondary antibody; both purified

binding: binds
B1: Deglycosylated LRG1 (LRG1 treated with PNGase F) (natural protein)
chain: VTLSPKDCQVFRSDHGSSISCQPPAEIPGYLPADTVHLAVEFFNLTHLPANLLQGASKLQELHLSSNGLESLSPEFLRPVPQLRVLDLTRNALTGLPPGLFQASATLDTLVLKENQLEVLEVSWLHGLKALGHLDLSGNRLRKLPPGLLANFTLLRTLDLGENQLETLPPDLLRGPLQLERLHLEGNKLQVLGKDLLLPQPDLRYLFLNGNKLARVAAGAFQGLRQLDMLDLSNNSLASVPEGLWASLGQPNWDMRDGFDISGNPWICDQNLSDLYRWLQAQKDKMFSQNDTRCAGPEAVKGQTLLAVAKSQ
modifications: N-glycans removed by PNGase F; Alexa 647-conjugated in the FACS assay
